Results are given in words; binding and its absence hold for the method and conditions named. In cells and extracts the contact can be indirect. A yes stands for co-enrichment or nearness to the bait. Other partners may have been found.
Each substance was assayed against HA-tagged CUL4B, wild type (endogenously tagged) (human (endogenous in HeLa Kyoto)) (UniProt Q13620) (assay: affinity purification with mass spectrometry).

By UniProt entry, the sequences of proteins in these tests, tags left out.
UniProt Q13620: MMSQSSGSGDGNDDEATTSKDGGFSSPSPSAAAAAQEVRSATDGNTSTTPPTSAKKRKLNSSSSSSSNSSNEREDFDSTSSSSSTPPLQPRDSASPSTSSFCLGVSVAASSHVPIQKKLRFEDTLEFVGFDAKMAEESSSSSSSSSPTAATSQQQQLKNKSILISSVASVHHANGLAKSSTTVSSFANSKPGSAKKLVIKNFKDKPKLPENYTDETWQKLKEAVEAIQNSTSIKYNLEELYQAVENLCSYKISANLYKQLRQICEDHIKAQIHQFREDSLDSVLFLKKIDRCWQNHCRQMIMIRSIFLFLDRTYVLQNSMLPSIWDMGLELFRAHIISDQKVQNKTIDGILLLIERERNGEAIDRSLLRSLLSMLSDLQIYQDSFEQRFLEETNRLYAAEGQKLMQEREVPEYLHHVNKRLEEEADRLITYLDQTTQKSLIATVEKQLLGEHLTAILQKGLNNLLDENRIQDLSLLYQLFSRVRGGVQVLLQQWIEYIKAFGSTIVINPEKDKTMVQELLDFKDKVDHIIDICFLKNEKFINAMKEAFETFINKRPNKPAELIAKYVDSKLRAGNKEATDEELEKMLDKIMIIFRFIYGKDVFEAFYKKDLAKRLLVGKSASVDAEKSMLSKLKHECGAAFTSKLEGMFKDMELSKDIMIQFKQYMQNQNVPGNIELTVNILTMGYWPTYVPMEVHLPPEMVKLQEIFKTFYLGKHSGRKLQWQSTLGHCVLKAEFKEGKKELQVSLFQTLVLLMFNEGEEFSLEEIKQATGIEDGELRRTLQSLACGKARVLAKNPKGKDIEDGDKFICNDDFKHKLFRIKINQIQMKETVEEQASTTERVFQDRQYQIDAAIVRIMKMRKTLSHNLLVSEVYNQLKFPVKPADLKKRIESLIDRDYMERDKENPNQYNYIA
UniProt Q86VP6: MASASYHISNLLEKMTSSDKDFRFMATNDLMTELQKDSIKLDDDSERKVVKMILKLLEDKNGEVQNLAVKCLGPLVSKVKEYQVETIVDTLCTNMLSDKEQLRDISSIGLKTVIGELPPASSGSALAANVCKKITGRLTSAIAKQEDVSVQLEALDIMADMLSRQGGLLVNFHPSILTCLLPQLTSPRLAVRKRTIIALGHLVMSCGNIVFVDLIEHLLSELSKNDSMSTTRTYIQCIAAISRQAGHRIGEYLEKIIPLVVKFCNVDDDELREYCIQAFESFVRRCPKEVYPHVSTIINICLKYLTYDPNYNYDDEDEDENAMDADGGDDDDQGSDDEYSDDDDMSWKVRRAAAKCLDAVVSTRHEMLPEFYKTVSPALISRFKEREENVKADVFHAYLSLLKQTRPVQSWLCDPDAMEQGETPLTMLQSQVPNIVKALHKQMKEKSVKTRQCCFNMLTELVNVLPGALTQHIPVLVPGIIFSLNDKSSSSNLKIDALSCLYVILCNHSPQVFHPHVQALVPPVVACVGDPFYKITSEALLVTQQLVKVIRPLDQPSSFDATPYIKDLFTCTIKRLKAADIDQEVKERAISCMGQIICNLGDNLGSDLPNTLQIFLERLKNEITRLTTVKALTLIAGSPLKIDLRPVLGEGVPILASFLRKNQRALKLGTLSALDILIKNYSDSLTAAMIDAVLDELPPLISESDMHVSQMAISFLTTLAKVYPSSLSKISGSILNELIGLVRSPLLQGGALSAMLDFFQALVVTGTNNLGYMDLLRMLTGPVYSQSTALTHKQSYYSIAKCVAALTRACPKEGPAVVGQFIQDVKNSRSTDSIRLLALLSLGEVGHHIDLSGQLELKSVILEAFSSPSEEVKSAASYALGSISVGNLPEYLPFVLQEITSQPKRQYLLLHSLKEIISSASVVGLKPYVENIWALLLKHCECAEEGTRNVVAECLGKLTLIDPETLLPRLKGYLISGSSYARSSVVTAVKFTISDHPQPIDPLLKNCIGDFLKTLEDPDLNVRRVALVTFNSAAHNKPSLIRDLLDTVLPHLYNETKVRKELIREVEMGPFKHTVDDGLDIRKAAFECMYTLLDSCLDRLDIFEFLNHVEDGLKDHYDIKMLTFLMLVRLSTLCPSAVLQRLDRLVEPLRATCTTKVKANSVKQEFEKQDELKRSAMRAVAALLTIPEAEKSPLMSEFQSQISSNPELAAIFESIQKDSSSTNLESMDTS
UniProt Q13619: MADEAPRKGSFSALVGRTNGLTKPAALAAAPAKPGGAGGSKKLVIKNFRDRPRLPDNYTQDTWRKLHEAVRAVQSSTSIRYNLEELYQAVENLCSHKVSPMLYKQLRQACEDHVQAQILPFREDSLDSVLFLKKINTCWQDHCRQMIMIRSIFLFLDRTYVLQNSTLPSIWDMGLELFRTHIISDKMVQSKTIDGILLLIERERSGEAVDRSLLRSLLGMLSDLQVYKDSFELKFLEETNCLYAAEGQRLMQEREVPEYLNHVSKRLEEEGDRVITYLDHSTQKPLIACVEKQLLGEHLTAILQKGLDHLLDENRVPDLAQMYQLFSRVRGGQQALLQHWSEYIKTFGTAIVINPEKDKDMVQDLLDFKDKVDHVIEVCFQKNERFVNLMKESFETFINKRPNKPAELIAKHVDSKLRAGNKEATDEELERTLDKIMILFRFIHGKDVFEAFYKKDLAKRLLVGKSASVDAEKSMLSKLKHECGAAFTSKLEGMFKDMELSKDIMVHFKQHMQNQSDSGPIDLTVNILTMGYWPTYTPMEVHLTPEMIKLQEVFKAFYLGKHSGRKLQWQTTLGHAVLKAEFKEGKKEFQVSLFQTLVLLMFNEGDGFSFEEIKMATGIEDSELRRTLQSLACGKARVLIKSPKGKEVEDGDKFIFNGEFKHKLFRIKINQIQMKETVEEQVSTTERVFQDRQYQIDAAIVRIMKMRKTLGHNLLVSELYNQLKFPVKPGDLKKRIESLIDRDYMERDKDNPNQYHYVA
UniProt Q16531: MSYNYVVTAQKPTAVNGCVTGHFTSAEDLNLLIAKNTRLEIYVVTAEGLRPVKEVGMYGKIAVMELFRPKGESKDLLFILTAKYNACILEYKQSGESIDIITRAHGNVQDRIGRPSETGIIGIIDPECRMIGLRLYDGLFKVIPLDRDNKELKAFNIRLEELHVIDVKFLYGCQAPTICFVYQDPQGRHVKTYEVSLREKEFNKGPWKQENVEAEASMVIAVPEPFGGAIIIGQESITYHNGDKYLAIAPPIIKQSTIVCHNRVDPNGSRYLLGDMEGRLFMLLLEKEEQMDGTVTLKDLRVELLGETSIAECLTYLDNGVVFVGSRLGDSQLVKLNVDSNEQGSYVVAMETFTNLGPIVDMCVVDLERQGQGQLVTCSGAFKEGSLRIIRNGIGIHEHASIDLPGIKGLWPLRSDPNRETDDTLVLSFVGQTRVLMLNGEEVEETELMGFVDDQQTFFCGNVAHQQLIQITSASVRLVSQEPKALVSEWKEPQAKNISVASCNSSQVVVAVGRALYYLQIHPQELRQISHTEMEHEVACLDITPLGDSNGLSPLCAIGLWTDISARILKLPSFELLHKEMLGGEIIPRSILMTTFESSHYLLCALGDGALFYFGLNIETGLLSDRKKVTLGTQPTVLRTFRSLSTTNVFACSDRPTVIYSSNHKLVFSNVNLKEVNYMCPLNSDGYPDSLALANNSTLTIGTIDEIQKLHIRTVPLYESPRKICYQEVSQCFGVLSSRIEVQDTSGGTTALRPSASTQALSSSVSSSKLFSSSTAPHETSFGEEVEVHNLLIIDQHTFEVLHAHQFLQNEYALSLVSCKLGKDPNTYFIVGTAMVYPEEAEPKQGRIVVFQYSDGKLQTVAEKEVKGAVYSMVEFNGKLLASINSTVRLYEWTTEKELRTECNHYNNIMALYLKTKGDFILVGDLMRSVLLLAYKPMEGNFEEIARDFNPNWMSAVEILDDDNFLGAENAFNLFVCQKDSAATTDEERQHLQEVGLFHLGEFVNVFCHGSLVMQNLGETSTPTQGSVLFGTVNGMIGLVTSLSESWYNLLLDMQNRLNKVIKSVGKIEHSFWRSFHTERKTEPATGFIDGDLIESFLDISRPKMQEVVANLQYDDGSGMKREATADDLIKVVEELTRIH

Question: For “CAND1 (endogenous) (from UniProt Q86VP6 1-1230)”, which binding is on record?
Answer: binds

Question: “CUL4A (endogenous) (from UniProt Q13619 1-759)” was tested. Which binding did it give?
Answer: binds

Question: Which binding does the source give for “DDB1 (endogenous) (from UniProt Q16531 1-1140)” here?
Answer: binds

Reference: doi:10.1101/2022.10.14.512051
